The other results are listed elsewhere or left out.

Sequences of proteins named here, by UniProt entry; tags and fusion partners are left off.
UniProt Q0JBA9, entry or part of it: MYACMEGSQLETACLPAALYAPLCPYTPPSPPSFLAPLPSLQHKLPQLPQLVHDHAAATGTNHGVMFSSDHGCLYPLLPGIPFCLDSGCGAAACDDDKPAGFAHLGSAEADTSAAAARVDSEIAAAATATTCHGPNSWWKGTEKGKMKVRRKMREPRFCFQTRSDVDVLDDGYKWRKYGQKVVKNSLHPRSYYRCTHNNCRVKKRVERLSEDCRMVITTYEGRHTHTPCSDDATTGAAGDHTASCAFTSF

Binding signal data for 42 sequences are collected here from article PMC7819943, “Rice protein-binding microarrays: a tool to detect cis-acting elements near promoter regions in rice”.

The target of the experiment is OsWRKY34 (Oryza sativa, UniProt Q0JBA9 1-250). The experiment in a line: protein-binding microarray (RPBM); PBS, 2% BSA, 51.3 ng/ul salmon testes DNA, 50 uM zinc acetate, 200 nM TF, 25 C, 1 h; high values mean tight binding. The following applies: protein: recombinant; tags: N-terminal polyhistidine and DsRed monomer fusion (pET32a); label: CyDye5-dUTP incorporated in the synthesized complementary strand; 3' TTTTT single-stranded linker to array surface; dsDNA, one strand shown. In a few lines:
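The binding signal for each feature is its fluorescence intensity in arbitrary units. An Axon 4000B scanner was used to read a custom Agilent array that had been made double-stranded with Cy5-dUTP primer extension, blocked with 2% BSA, incubated at 25 °C for 1 h with 200 nM protein in PBS, 2% BSA, salmon testes DNA and 50 µM zinc acetate, and washed. The protein was an N-terminal polyhistidine–DsRed transcription factor fusion from E. coli BL21-CodonPlus, purified on Ni–NTA.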
Consider “TGATGTGGATTTCTTTTACTCTCGTGTTCTAGTAGTTGTCCGGAGTCACCTAGTGCAG”, for which the binding signal was 8720 fluorescence intensity (a.u.). As to “ACCCTCTATCTCGTCCCATACGTCTCTGACCGCCGTACCCCGGAGTCACCTAGTGCAG”, the binding signal is 8730 fluorescence intensity (a.u.). On to “GTTGGATTGGCACCTTCTACCGACCGTGCACGTTCATCATCGGAGTCACCTAGTGCAG”, for which the binding signal was 8510 fluorescence intensity (a.u.). As for “GCAATCCGTCGGAATATCTCTCCCCGATCTCCTCTTCTTCCGGAGTCACCTAGTGCAG”, the figure is 8600 fluorescence intensity (a.u.); as for “GCCATAGCCGTTGCTCTTGTACTATATAGCCCACCCGTTTCGGAGTCACCTAGTGCAG”, 8820 fluorescence intensity (a.u.); as for “CCGCCCGACCACTATTCGTAGCCTCGTCGTAGTCAACACCCGGAGTCACCTAGTGCAG”, 9480 fluorescence intensity (a.u.). Regarding “CCTCCCCAACCACCCGCTGTGTCATCTGCGACCTCAATTTCGGAGTCACCTAGTGCAG”, the binding signal is 9880 fluorescence intensity (a.u.). The same measure for “TGTTTCTTGATGTCTTCTTTCCAGGTGATTCGTGTTTCTTCGGAGTCACCTAGTGCAG”: 10500 fluorescence intensity (a.u.).

In the case of “CCTCGCCCTCACCGTCTCCACCCGCCGCGCCGCGTCCCGGCGGAGTCACCTAGTGCAG”, the binding signal is 12200 fluorescence intensity (a.u.). As for “ACAGGAGAGTGATTACTTTTGCATTATTAATTGATGTTGTCGGAGTCACCTAGTGCAG”, the figure is 8400 fluorescence intensity (a.u.); as for “GTTGTCTGAATTTTTGTTCCGCACTTGGTGCCATCTAGTCCGGAGTCACCTAGTGCAG”, 8120 fluorescence intensity (a.u.); as for “CTCTCTCTCTCTCCGGCCTCCGGCTTCGCCTTCACGACGCCGGAGTCACCTAGTGCAG”, 10800 fluorescence intensity (a.u.). The same measure for “CCACTCCATGTCCATGGCACTGCATCAAACCCTTCTCCTCCGGAGTCACCTAGTGCAG”: 10300 fluorescence intensity (a.u.); for “CACGCATGTTTGCTTTGTCTTCTTACTTTGCACCTATCGCCGGAGTCACCTAGTGCAG”: 9200 fluorescence intensity (a.u.). For the sequence “TATGGGTTCTCACTTTAGCTCCTTGTGCCACCTAAATTAACGGAGTCACCTAGTGCAG”, the binding signal was 8130 fluorescence intensity (a.u.).

As for “AGCGCCTGCCACCCTGACACGTGTCCATCTGTTCGGACAACGGAGTCACCTAGTGCAG”, the binding signal is 8150 fluorescence intensity (a.u.). The same measure for “TCCCCGCCACTACTACAATTCTCTCCTGTGCTGCTGCCCTCGGAGTCACCTAGTGCAG”: 11000 fluorescence intensity (a.u.). As for “ACCGTTAACTTTTTAGCATATGTTTGACTGTTCATCTTATCGGAGTCACCTAGTGCAG”, the figure is 11200 fluorescence intensity (a.u.). The same measure for “CATTCCATTCCTTCTCCCTGTGCTCGGATTCCTGTTCTTGCGGAGTCACCTAGTGCAG”: 8160 fluorescence intensity (a.u.); for “TCAGTTCGGCTCGCGGCTCGTCGTCTCCTTCGTCCTCCACCGGAGTCACCTAGTGCAG”: 9920 fluorescence intensity (a.u.). As to “CCACCCCGGCCGCCTCACCGCCGCGCCGTCCTCCTGCACGCGGAGTCACCTAGTGCAG”, the binding signal was 11800 fluorescence intensity (a.u.).

For the sequence “ACGACGCCCACGCACATCATCCCTCCGCGCAAAAGCCTATCGGAGTCACCTAGTGCAG”, the binding signal was 8910 fluorescence intensity (a.u.). The same measure for “CGATTGCTGACTAGGATTGTTGACCTCACTTTTTTTTGTCCGGAGTCACCTAGTGCAG”: 9800 fluorescence intensity (a.u.). In the case of “CTTTTCCTGTTGCTCTATCGGTAGCTCCAATTTTCTCTTTCGGAGTCACCTAGTGCAG”, the binding signal was 10500 fluorescence intensity (a.u.). The same measure for “TATGCAGGTGCCTCCACGCCTTTTTTTTTTCTTTTCTTTTCGGAGTCACCTAGTGCAG”: 9490 fluorescence intensity (a.u.).

With “CTTAGCTCAACACTATATAGTACTGCATGCGTTTGATATACGGAGTCACCTAGTGCAG”, the binding signal was 9170 fluorescence intensity (a.u.). As for “GCCTACAATTTGTAGTTTGTACTTCAATGATGTGATCAACCGGAGTCACCTAGTGCAG”, the figure is 8110 fluorescence intensity (a.u.); as for “ATATTTCCTCCGTGTCCATCCAGCATTCCATCGTGAAATTCGGAGTCACCTAGTGCAG”, 14600 fluorescence intensity (a.u.); as for “TTCATTTTTTCTATGGTTGGTTCTTGTGTGTCCTTAAGCGCGGAGTCACCTAGTGCAG”, 9860 fluorescence intensity (a.u.).

Consider “CCGCCACCACCCGTGCCCGCCGCATCCAGCTCATCTCCGTCGGAGTCACCTAGTGCAG”, for which the binding signal was 10100 fluorescence intensity (a.u.).

“GATCTCTCTCACACAGTGCTGCATGCTTCCTTCCATGAATCGGAGTCACCTAGTGCAG”: the binding signal is 9220 fluorescence intensity (a.u.). For “TTCCTATGTTTTTCCTGTGTTTTGTAATTCTCTGTTTTACCGGAGTCACCTAGTGCAG”, the binding signal was 10600 fluorescence intensity (a.u.). The same measure for “TTCTCCATTTTTCACCATTTTTAGGTCAGTGTATTGCTTACGGAGTCACCTAGTGCAG”: 9910 fluorescence intensity (a.u.); for “GCTTGCATTGCTTCACCATAACTCACCTTCTTTTGCATGACGGAGTCACCTAGTGCAG”: 9860 fluorescence intensity (a.u.); for “AGGCTCGATTGGGTTCATGGGGTAAAACTATACTTTCATACGGAGTCACCTAGTGCAG”: 9580 fluorescence intensity (a.u.).

On to “CTAGCTTTGAGGTGGAGGTGGTGGTGGAGGAGGAGGAGGACGGAGTCACCTAGTGCAG”, for which the binding signal is 12600 fluorescence intensity (a.u.). In the case of “GACTCGGTCTCGTCCTCCGCTCTCTACATATCCCCGGATCCGGAGTCACCTAGTGCAG”, the binding signal was 11100 fluorescence intensity (a.u.). The same measure for “AATTCACGCATGTATTAGCTCTTTTTTTTCTCGAAAATTTCGGAGTCACCTAGTGCAG”: 8200 fluorescence intensity (a.u.); for “CCCGCTGCTTGCCACCTCTCCTCCGTGTGCGCCACCGCCGCGGAGTCACCTAGTGCAG”: 8220 fluorescence intensity (a.u.). For “GGACAACCGGATAGTAGTTGCTCTCTCTTTCCGTCTTTTTCGGAGTCACCTAGTGCAG”, the binding signal is 10600 fluorescence intensity (a.u.). For the sequence “GCACACTGACACACAGTCACACACCATCCCGCTCTCTCCACGGAGTCACCTAGTGCAG”, the binding signal is 8430 fluorescence intensity (a.u.). Regarding “GCTTGGTGTTTGTGCTTGTTGTTGCGTTGCGTTTGCTTATCGGAGTCACCTAGTGCAG”, the binding signal is 12400 fluorescence intensity (a.u.).
